Assay results from the supplement of paper PMC12462457.
Where a name gives a salt, the structure may show the parent alone. ± gives the standard deviation of the averaged measurements. Some of the results follow. Repeats in this data set agree poorly, so a single value says little.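 Cell counts came from imaging DAPI-stained nuclei, excluding as dead any cells lacking phalloidin-stained cytoplasm. Counts per well were normalized to the median vehicle-well count on that plate, and the values were averaged over two replicate plates.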

Tested on: OVCAR8
Assay: cell count relative to DMSO vehicle (fold change); higher = more surviving senescent cells (less killing)
Conditions: senescence inducer: cisplatin 10 µM 48 h, then 6 d recovery (CP senescent), exposure time 24 h

| SMILES | cell count (compound dose 1 µM) | cell count (compound dose 5 µM) |
| --- | --- | --- |
| CC(=O)N1N=C(c2ccc(N)cc2)c2cc3c(cc2C[C@H]1C)OCO3 [Talampanel] | 0.904 ± 0.2 | 0.733 ± 0.021 |
| COc1ccc2c(c1)/C(=C/c1cnc[nH]1)C(=O)N2 | 1.47 ± 0.35 | 1.5 ± 0.1 |
| COc1ccc(C[C@H]2NC[C@H](O)[C@H]2OC(C)=O)cc1 [Anisomycin] | 0.616 ± 0.0057 | 0.395 ± 0.0099 |
| C[C@@H]1CC[C@H]2[C@@H](C)C(=O)O[C@@H]3O[C@@]4(C)CC[C@@H]1[C@]32OO4 [Artemisinin] | 0.808 ± 0.13 | 0.571 ± 0.33 |
| C=C(C)[C@H]1Cc2c(ccc3c2O[C@@H]2COc4cc(OC)c(OC)cc4[C@@H]2C3=O)O1 [Rotenone] | 0.808 ± 0.078 | 0.52 ± 0.064 |
| COc1ccc([C@@]23Oc4cc(OC)cc(OC)c4[C@]2(O)[C@H](O)[C@H](C(N)=O)[C@H]3c2ccccc2)cc1 [Didesmethylrocaglamide] | 0.519 ± 0.052 | 0.465 ± 0.012 |
| O=C1C=C2C(=CCOC2O)O1 (centres undefined) | 0.472 ± 0.27 | 0.681 ± 0.6 |
| CNc1ccc2oc(C[C@H]3O[C@@]4(CC[C@H]3C)O[C@H]([C@H](C)C(=O)c3ccc[nH]3)[C@H](C)C[C@H]4C)nc2c1C(=O)O [Calcimycin] | 1.03 ± 0.03 | 0.845 ± 0.06 |
| COc1ccc2c(c[n+](C)c3c4cc5c(cc4ccc23)OCO5)c1OC [Chelerythrine (chloride)] | 1.24 ± 0.014 | 0.518 ± 0.083 |
| O=C1CCC[C@@H]2[C@H]3CCCN4CCC[C@H](CN12)[C@@H]34 [Sophoridine] | 0.416 ± 0.15 | 0.187 ± 0.16 |
| COc1ccc(O)c(C(C)(C)C)c1.COc1ccc(O)cc1C(C)(C)C | 1.3 ± 0.037 | 1.3 ± 0.079 |
| O=C1c2ccccc2C(=O)c2c1cccc2-c1cnn(C2CCNCC2)c1 [PDK4-IN-1 (hydrochloride)] | 1.12 ± 0.016 | 0.928 ± 0.1 |
| C[C@]12CC[C@H](O)C[C@@]1(O)CC[C@@H]1[C@@H]2CC[C@]2(C)[C@@H](c3ccc(=O)oc3)[C@@H](O)[C@H]3O[C@]132 [Desacetylcinobufotalin] | 0.886 ± 0.0028 | 0.185 ± 0.16 |
| CC(C)=CCC[C@H](C(=O)O)[C@H]1CC[C@]2(C)C3=C(CC[C@@]12C)[C@@]1(C)CCC(=O)C(C)(C)[C@H]1CC3 [β-Elemonic acid] | 0.96 ± 0.12 | 1.17 ± 0.11 |
| C1=C2CCCN[C@H]2[C@@H]2C[C@H]1[C@H]1CCCCN1C2 [Aloperine] | 0.747 ± 0.13 | 0.776 ± 0.13 |
| COc1cc([C@@H]2c3cc4c(cc3[C@H](O)[C@H]3COC(=O)[C@@H]23)OCO4)cc(OC)c1OC [Picropodophyllin] | 0.839 ± 0.2 | 0.576 ± 0.16 |

| SMILES | cell count (compound dose 1 µM) | cell count (compound dose 5 µM) |
| --- | --- | --- |
| O=Cc1cn(Cc2ccc(Cl)cc2)c2ccccc12 [Oncrasin-1] | 1.15 ± 0.086 | 0.983 ± 0.15 |
| CC1=C(O)C(=O)C=C2C1=CC=C1[C@@]2(C)CC[C@@]2(C)[C@@H]3C[C@](C)(C(=O)O)CC[C@]3(C)CC[C@]12C [Tripterin] | 0.239 ± 0.037 | 0.016 ± 0.0028 |
| COc1cc(-n2c(=S)[nH]c3ccccc3c2=O)c(Cl)cc1Cl [Mdivi-1] | 1.003 ± 0.0042 | 0.439 ± 0.3 |
| CC(C)=CCC[C@]1(C)C=Cc2c(O)c3c(c(CC=C(C)C)c2O1)O[C@]12C(=C[C@@H]4C[C@H]1C(C)(C)O[C@@]2(C/C=C(/C)C(=O)O)C4=O)C3=O [Gambogic Acid] | 0.148 ± 0.044 | 0.026 ± 0.0014 |
| N#Cc1nn(-c2c(Cl)cc(C(F)(F)F)cc2Cl)c(N)c1[S+]([O-])C(F)(F)F (centres undefined) [Fipronil] | 0.868 ± 0.033 | 1.02 ± 0.2 |
| CC[C@@]1(O)C(=O)OCc2c1cc1n(c2=O)Cc2cc3ccccc3nc2-1 [Camptothecin] | 0.534 ± 0.018 | 0.364 ± 0.076 |
| O=c1ccc2ccc3occc3c2o1 [Angelicin] | 1.14 ± 0.038 | 0.998 ± 0.013 |
| C/C=C(/C)C(=O)O[C@H]1[C@@H]2[C@H](C)C(=O)O[C@@H]2C[C@@H](C)[C@@H]2C=CC(=O)[C@]21C [Brevilin A] | 0.452 ± 0.024 | 0.215 ± 0.018 |
| CC(C)[C@@H]1NC(=O)[C@H](C)OC(=O)[C@@H](C(C)C)NC(=O)[C@@H](C(C)C)OC(=O)[C@H](C(C)C)NC(=O)[C@H](C)OC(=O)[C@@H](C(C)C)NC(=O)[C@@H](C(C)C)OC(=O)[C@H](C(C)C)NC(=O)[C@H](C)OC(=O)[C@@H](C(C)C)NC(=O)[C@@H](C(C)C)OC1=O [Valinomycin] | 0.978 ± 0.073 | 1.07 ± 0.027 |
| O=C(Nc1ccncc1)C(=O)c1cn(Cc2ccc(Cl)cc2)c2ccccc12 [Indibulin] | 0.862 ± 0.14 | 0.936 ± 0.023 |
| C=C1[C@H](OC(=O)c2ccccc2)C[C@H]2[C@@H](/C=C(\C)C(=O)[C@@]3(OC(C)=O)C[C@H](C)[C@H](OC(=O)c4ccccc4)[C@@H]3[C@H]1OC(C)=O)C2(C)C [Euphorbia Factor L2] | 1.13 ± 0.043 | 0.966 ± 0.11 |
| CC(=O)OC(C)(C)/C=C/C(=O)[C@](C)(O)[C@H]1[C@H](O)C[C@@]2(C)[C@@H]3CC=C4[C@H](C[C@H](O)C(=O)C4(C)C)[C@]3(C)C(=O)C[C@]12C [Cucurbitacin B] | 0 | 0.011 ± 0.0071 |
| COc1ccccc1-n1c(/C=C/c2ccc(O)c(O)c2)nc2ccccc2c1=O | 0.715 ± 0.17 | 0.862 ± 0.071 |
| C/C(=C\c1csc(C)n1)[C@@H]1C[C@@H]2O[C@]2(C)CCC[C@H](C)[C@H](O)[C@@H](C)C(=O)C(C)(C)[C@@H](O)CC(=O)O1 [Epothilone B] | 0.922 ± 0.052 | 1.03 ± 0.29 |
| C=C[C@H]1CN2CC[C@H]1C[C@@H]2[C@@H](O)c1ccnc2ccccc12 [Cinchonine] | 1.19 ± 0.013 | 0.976 ± 0.14 |
| COCC1(CO)C(=O)C2CCN1CC2 (centres undefined) [Eprenetapopt] | 1.17 ± 0.21 | 1.15 ± 0.097 |

Structural class: the entries above with an NH in an aromatic ring

| SMILES | cell count (compound dose 1 µM) | cell count (compound dose 5 µM) |
| --- | --- | --- |
| COc1ccc2c(c1)/C(=C/c1cnc[nH]1)C(=O)N2 | 1.47 ± 0.35 | 1.5 ± 0.1 |
| CNc1ccc2oc(C[C@H]3O[C@@]4(CC[C@H]3C)O[C@H]([C@H](C)C(=O)c3ccc[nH]3)[C@H](C)C[C@H]4C)nc2c1C(=O)O [Calcimycin] | 1.03 ± 0.03 | 0.845 ± 0.06 |
| COc1cc(-n2c(=S)[nH]c3ccccc3c2=O)c(Cl)cc1Cl [Mdivi-1] | 1.003 ± 0.0042 | 0.439 ± 0.3 |
